PubChem BioAssay AID652243, Drosophila RNAi Screening Center, 2013
The screen tested about 24,000 reagents; below is a random part of those that have a named target and a result. In the full data, 246 (1%) were called active. 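Plates not normalised; calls are printed but the firefly/Renilla ratio behind them is not deposited; fold cut for lowering reported inconsistently.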 Raw values are not corrected between plates. A plus sign joins genes that one reagent is predicted to hit. The record does not give: the amount of reagent.

Assay: 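Knock-downs that decrease or increase androgen receptor reporter signal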 (primary screen)
System: Drosophila S2R+ cells
Reagents: long dsRNA against Drosophila genes
Time to read-out: 72 h (48 h, then 24 h hormone)
Conditions: synthetic androgen R1881 at 10 nM for 24 h
Measurement: 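Firefly light from an androgen-responsive reporter and Renilla control light per well, raw and unnormalised, for each of two replicates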
Reading the numbers: firefly reporter light: higher = more light from androgen-responsive reporter; Renilla control light: higher = more constitutive control signal (cell number, transfection)
Call rule: 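Across duplicate plates, a knock-down whose log firefly/Renilla ratio shifted a set fold down or up from the GFP/LacZ control mean was a hit; the downward cut appears as both 1.5 and 3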
Meaning of the calls: active = hit: reporter lowered or raised; inactive = no hit

What did the screen give for Ufsp1 (UFM1 specific peptidase 1) [DRSC04958]?
firefly reporter light, replicate 1: 91654; firefly reporter light, replicate 2: 1.07e5; Renilla control light, replicate 1: 3.25e5; Renilla control light, replicate 2: 4.74e5; Outcome: inactive

Which result is listed for Ufsp1 (UFM1 specific peptidase 1) [DRSC27352]?
firefly reporter light, replicate 1: 3.26e5; firefly reporter light, replicate 2: 3.09e5; Renilla control light, replicate 1: 6.56e5; Renilla control light, replicate 2: 7.83e5; Outcome: inactive

With Lar (Leukocyte-antigen-related-like) [DRSC01707], what does the deposit list?
firefly reporter light, replicate 1: 1.46e5; firefly reporter light, replicate 2: 1.93e5; Renilla control light, replicate 1: 5.47e5; Renilla control light, replicate 2: 4.99e5; Outcome: inactive

Which result is listed for Lar (Leukocyte-antigen-related-like) [DRSC03361]?
firefly reporter light, replicate 1: 1.24e6; firefly reporter light, replicate 2: 7.03e5; Renilla control light, replicate 1: 2.86e6; Renilla control light, replicate 2: 1.73e6; Outcome: inactive

What is on record for Lar (Leukocyte-antigen-related-like) [DRSC36994]?
Outcome: inactive

What is on record for CG33155 + mRpL53 [DRSC05461]?
firefly reporter light, replicate 1: 1.37e5; firefly reporter light, replicate 2: 1.59e5; Renilla control light, replicate 1: 3.99e5; Renilla control light, replicate 2: 6.42e5; Outcome: inactive

What did the screen give for CG33155 + mRpL53 [DRSC29467]?
firefly reporter light, replicate 1: 5.10e5; firefly reporter light, replicate 2: 5.29e5; Renilla control light, replicate 1: 9.10e5; Renilla control light, replicate 2: 9.10e5; Outcome: inactive

For CG15255 [DRSC01869], how do the results read?
firefly reporter light, replicate 1: 1.23e5; firefly reporter light, replicate 2: 1.62e5; Renilla control light, replicate 1: 1.60e6; Renilla control light, replicate 2: 1.94e6; Outcome: inactive

Which result is listed for CG15255 [DRSC29808]?
firefly reporter light, replicate 1: 3.30e5; firefly reporter light, replicate 2: 4.30e5; Renilla control light, replicate 1: 8.21e5; Renilla control light, replicate 2: 1.14e6; Outcome: inactive

What is on record for CG42240 [DRSC18097]?
firefly reporter light, replicate 1: 5.08e5; firefly reporter light, replicate 2: 5.23e5; Renilla control light, replicate 1: 1.76e6; Renilla control light, replicate 2: 1.84e6; Outcome: inactive

What is on record for CG42240 [DRSC30017]?
firefly reporter light, replicate 1: 8.68e5; firefly reporter light, replicate 2: 7.27e5; Renilla control light, replicate 1: 1.30e6; Renilla control light, replicate 2: 1.53e6; Outcome: inactive

With CG12535 [DRSC17838], what does the deposit list?
firefly reporter light, replicate 1: 4.51e5; firefly reporter light, replicate 2: 4.25e5; Renilla control light, replicate 1: 4.82e6; Renilla control light, replicate 2: 4.06e6; Outcome: inactive

What did the screen give for Map60 (Microtubule-associated protein 60) [DRSC07464]?
firefly reporter light, replicate 1: 1.12e6; firefly reporter light, replicate 2: 1.17e6; Renilla control light, replicate 1: 1.33e6; Renilla control light, replicate 2: 9.23e5; Outcome: inactive

What is on record for ftz-f1 (ftz transcription factor 1) [DRSC25015]?
firefly reporter light, replicate 1: 7.52e5; firefly reporter light, replicate 2: 4.76e5; Renilla control light, replicate 1: 4.99e5; Renilla control light, replicate 2: 6.01e5; Outcome: inactive

With ftz-f1 (ftz transcription factor 1) [DRSC37552], what does the deposit list?
firefly reporter light, replicate 1: 7.11e5; firefly reporter light, replicate 2: 5.48e5; Renilla control light, replicate 1: 2.22e6; Renilla control light, replicate 2: 1.47e6; Outcome: inactive

With RhoGAP93B (Rho GTPase activating protein at 93B) [DRSC15488], what does the deposit list?
firefly reporter light, replicate 1: 1.94e5; firefly reporter light, replicate 2: 3.34e5; Renilla control light, replicate 1: 2.99e6; Renilla control light, replicate 2: 3.53e6; Outcome: inactive

Which result is listed for CG7179 [DRSC25007]?
firefly reporter light, replicate 1: 1.13e6; firefly reporter light, replicate 2: 1.25e6; Renilla control light, replicate 1: 1.12e6; Renilla control light, replicate 2: 1.14e6; Outcome: inactive

What is on record for Lamp1 [DRSC03727]?
firefly reporter light, replicate 1: 2.94e5; firefly reporter light, replicate 2: 2.77e5; Renilla control light, replicate 1: 1.21e6; Renilla control light, replicate 2: 1.46e6; Outcome: inactive

With Shmt (Serine hydroxymethyl transferase) [DRSC18264], what was measured?
firefly reporter light, replicate 1: 1.91e5; firefly reporter light, replicate 2: 2.51e5; Renilla control light, replicate 1: 2.13e6; Renilla control light, replicate 2: 1.76e6; Outcome: inactive

With elfless [DRSC02451], what was measured?
firefly reporter light, replicate 1: 2.06e5; firefly reporter light, replicate 2: 2.23e5; Renilla control light, replicate 1: 1.75e6; Renilla control light, replicate 2: 2.21e6; Outcome: inactive

What is on record for CG1172 [DRSC12182]?
firefly reporter light, replicate 1: 32226; firefly reporter light, replicate 2: 38923; Renilla control light, replicate 1: 6.62e5; Renilla control light, replicate 2: 6.91e5; Outcome: inactive

What is on record for CG1172 [DRSC21954]?
firefly reporter light, replicate 1: 3.08e5; firefly reporter light, replicate 2: 2.62e5; Renilla control light, replicate 1: 1.14e6; Renilla control light, replicate 2: 1.01e6; Outcome: inactive

With CG1172 [DRSC23672], how do the results read?
firefly reporter light, replicate 1: 9.25e5; firefly reporter light, replicate 2: 7.36e5; Renilla control light, replicate 1: 1.10e6; Renilla control light, replicate 2: 9.47e5; Outcome: inactive

What did the screen give for Ube4B (Ubiquitination factor E4B) [DRSC03277]?
firefly reporter light, replicate 1: 1.36e6; firefly reporter light, replicate 2: 1.21e6; Renilla control light, replicate 1: 1.52e6; Renilla control light, replicate 2: 1.50e6; Outcome: inactive

With Lcp65Ae [DRSC11212], what does the deposit list?
firefly reporter light, replicate 1: 1.37e5; firefly reporter light, replicate 2: 1.97e5; Renilla control light, replicate 1: 1.27e6; Renilla control light, replicate 2: 1.27e6; Outcome: inactive

How did the screen score CG14658 [DRSC12244]?
firefly reporter light, replicate 2: 277; Outcome: inactive

For dlp (dally-like) [DRSC10472], what does the deposit list?
firefly reporter light, replicate 1: 1.03e5; firefly reporter light, replicate 2: 99770; Renilla control light, replicate 1: 1.96e6; Renilla control light, replicate 2: 1.61e6; Outcome: active

Which result is listed for dlp (dally-like) [DRSC23803]?
firefly reporter light, replicate 1: 4.71e5; firefly reporter light, replicate 2: 3.56e5; Renilla control light, replicate 1: 5.84e5; Renilla control light, replicate 2: 5.23e5; Outcome: inactive

Reagents above called active (1):
dlp (dally-like) [DRSC10472]: firefly reporter light, replicate 1 = 1.03e5; firefly reporter light, replicate 2 = 99770; Renilla control light, replicate 1 = 1.96e6; Renilla control light, replicate 2 = 1.61e6; Outcome = active
